The labels stand for the following.
B2: Bbc1 (natural protein, S. cerevisiae, UniProt P47068 1-1157, looked up)
chain: MSEPEVPFKVVAQFPYKSDYEDDLNFEKDQEIIVTSVEDAEWYFGEYQDSNGDVIEGIFPKSFVAVQGSEVGKEAESSPNTGSTEQRTIQPEVEQKDLPEPISPETKKETLSGPVPVPAATVPVPAATVPVPAATAVSAQVQHDSSSGNGERKVPMDSPKLKARLSMFNQDITEQVPLPKSTHLDLENIPVKKTIVADAPKYYVPPGIPTNDTSNLERKKSLKENEKKIVPEPINRAQVESGRIETENDQLKKDLPQMSLKERIALLQEQQRLQAAREEELLRKKAKLEQEHERSAVNKNEPYTETEEAEENEKTEPKPEFTPETEHNEEPQMELLAHKEITKTSREADEGTNDIEKEQFLDEYTKENQKVEESQADEARGENVAEESEIGYGHEDREGDNDEEKEEEDSEENRRAALRERMAKLSGASRFGAPVGFNPFGMASGVGNKPSEEPKKKQHKEKEEEEPEQLQELPRAIPVMPFVDPSSNPFFRKSNLSEKNQPTETKTLDPHATTEHEQKQEHGTHAYHNLAAVDNAHPEYSDHDSDEDTDDHEFEDANDGLRKHSMVEQAFQIGNNESENVNSGEKIYPQEPPISHRTAEVSHDIENSSQNTTGNVLPVSSPQTRVARNGSINSLTKSISGENRRKSINEYHDTVSTNSSALTETAQDISMAAPAAPVLSKVSHPEDKVPPHPVPSAPSAPPVPSAPSVPSAPPVPPAPPALSAPSVPPVPPVPPVSSAPPALSAPSIPPVPPTPPAPPAPPAPLALPKHNEVEEHVKSSAPLPPVSEEYHPMPNTAPPLPRAPPVPPATFEFDSEPTATHSHTAPSPPPHQNVTASTPSMMSTQQRVPTSVLSGAEKESRTLPPHVPSLTNRPVDSFHESDTTPKVASIRRSTTHDVGEISNNVKIEFNAQERWWINKSAPPAISNLKLNFLMEIDDHFISKRLHQKWVVRDFYFLFENYSQLRFSLTFNSTSPEKTVTTLQERFPSPVETQSARILDEYAQRFNAKVVEKSHSLINSHIGAKNFVSQIVSEFKDEVIQPIGARTFGATILSYKPEEGIEQLMKSLQKIKPGDILVIRKAKFEAHKKIGKNEIINVGMDSAAPYSSVVTDYDFTKNKFRVIENHEGKIIQNSYKLSHMKSGKLKVFRIVARGYVGW
notes: Bbc1, S. cerevisiae; also called Bbc1-3myeGFP; Bbc1-3mCherry; source: chromosomally tagged at the endogenous locus, in the cytoplasm of living S. cerevisiae cells

Test [1] has as its target ede1Δ901–1381-1myeGFP (S. cerevisiae) (UniProt P34216). Briefly: FCS molecular brightness (counts per particle per second); living yeast cells, cytoplasm; brightness of GFP-tagged particles compared with 3myeGFP and Ent2-3myeGFP (monomers) or with wild-type Ede1; average of all particles.
For the test “Bbc1”, the target named is B2. In words: fluorescence cross-correlation spectroscopy (FCCS); self-interaction: living diploid yeast cells with one allele fused to (3)myeGFP and one to (3)mCherry, cytoplasm; apparent (effective) KD, to be taken as the upper limit since complexes of one colour are not seen.
Another test has as its target T1, Sla1 (S. cerevisiae, UniProt P32790 1-1244).
T1 construct: Sla1, S. cerevisiae; also called Sla1-3myeGFP; Sla1-3mCherry; source: chromosomally tagged at the endogenous locus, in the cytoplasm of living S. cerevisiae cells
T1 sequence (looked up): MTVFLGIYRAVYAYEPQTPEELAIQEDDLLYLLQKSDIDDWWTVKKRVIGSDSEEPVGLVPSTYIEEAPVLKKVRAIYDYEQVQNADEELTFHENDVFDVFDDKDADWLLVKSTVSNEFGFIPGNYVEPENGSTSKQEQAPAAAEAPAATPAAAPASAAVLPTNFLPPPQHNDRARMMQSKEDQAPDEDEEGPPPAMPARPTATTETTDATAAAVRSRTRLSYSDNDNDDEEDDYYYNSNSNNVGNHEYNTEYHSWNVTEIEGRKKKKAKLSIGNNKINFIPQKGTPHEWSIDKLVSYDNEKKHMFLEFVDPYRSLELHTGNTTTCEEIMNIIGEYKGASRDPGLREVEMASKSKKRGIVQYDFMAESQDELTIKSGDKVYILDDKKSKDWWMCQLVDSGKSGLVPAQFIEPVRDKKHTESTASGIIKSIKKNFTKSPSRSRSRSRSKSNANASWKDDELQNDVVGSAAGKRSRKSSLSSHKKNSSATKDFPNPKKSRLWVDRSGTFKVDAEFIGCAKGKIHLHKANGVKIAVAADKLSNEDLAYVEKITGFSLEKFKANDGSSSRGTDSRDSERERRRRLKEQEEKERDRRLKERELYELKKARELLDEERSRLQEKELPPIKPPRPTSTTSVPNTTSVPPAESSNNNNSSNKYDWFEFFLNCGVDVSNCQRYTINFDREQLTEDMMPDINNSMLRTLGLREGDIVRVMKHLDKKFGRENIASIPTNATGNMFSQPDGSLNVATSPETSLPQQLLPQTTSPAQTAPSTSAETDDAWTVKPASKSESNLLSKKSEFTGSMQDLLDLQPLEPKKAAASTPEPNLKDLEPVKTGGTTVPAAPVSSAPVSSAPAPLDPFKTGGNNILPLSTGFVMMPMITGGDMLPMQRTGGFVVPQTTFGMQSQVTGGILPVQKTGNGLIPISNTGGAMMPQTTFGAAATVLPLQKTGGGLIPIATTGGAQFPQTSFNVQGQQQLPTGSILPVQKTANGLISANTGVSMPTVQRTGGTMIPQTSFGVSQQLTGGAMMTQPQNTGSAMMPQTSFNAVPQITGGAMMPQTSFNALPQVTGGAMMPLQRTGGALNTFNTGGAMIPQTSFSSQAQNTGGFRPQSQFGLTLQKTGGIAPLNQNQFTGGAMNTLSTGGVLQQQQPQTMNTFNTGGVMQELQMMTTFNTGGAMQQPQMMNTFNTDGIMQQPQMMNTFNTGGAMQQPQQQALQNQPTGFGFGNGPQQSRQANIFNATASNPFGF
Briefly: condition: 1000 nM (only Kdeff-values < 1000 nM are shown); fluorescence cross-correlation spectroscopy (FCCS); in the cytoplasm of living yeast cells; first-named protein green (3myeGFP or 1myeGFP; eGFP for Don1), second red (3mCherry); self-interaction in diploid strains with one allele of each colour; apparent or effective KD (Kdeff) from single-cell measurements; only Kdeff values < 1000 nM are shown; values for self-interactions are upper limits.

Results are given in words; binding and its absence hold for the method and conditions named. Some binding calls cover weakened binding; strength is not graded here. For part of these data: Where a sequence is shown, tags or fusion partners need not be part of it.

Results on two molecules are retold here after publication PMC4299599, “Quantification of cytosolic interactions identifies Ede1 oligomers as key organizers of endocytosis” (Molecular Systems Biology, 2014).

B1: ede1Δ901–1381-1myeGFP (domain or fragment, UniProt P34216 1-900)
chain: MASITFRTPLSSQEQAFYNQKFHQLDTEDLGVVTGEAVRPLFASSGLPGQLLSQVWATVDIDNKGFLNLNEFSAALRMIAQLQNAPNQPISAALYESTPTQLASFSINQNPAPMQSGSATGNTNNTDIPALSSNDIAKFSQLFDRTAKGAQTVAGDKAKDIFLKARLPNQTLGEIWALCDRDASGVLDKSEFIMAMYLIQLCMSHHPSMNTPPAVLPTQLWDSIRLEPVVVNQPNRTTPLSANSTGVSSLTRHSTISRLSTGAFSNAASDWSLSFEKKQQFDAIFDSLDKQHAGSLSSAVLVPFFLSSRLNQETLATIWDLADIHNNAEFTKLEFAIAMFLIQKKNAGVELPDVIPNELLQSPALGLYPPNPLPQQQSAPQIAIPSRASKPSLQDMPHQVSAPAVNTQPTVPQVLPQNSNNGSLNDLLALNPSFSSPSPTKAQTVVQNNTNNSFSYDNNNGQATLQQQQPQQPPPLTHSSSGLKKFTPTSNFGQSIIKEEPEEQEQLRESSDTFSAQPPPVPKHASSPVKRTASTTLPQVPNFSVFSMPAGAATSAATGAAVGAAVGAAALGASAFSRSSNNAFKNQDLFADGEASAQLSNATTEMANLSNQVNSLSKQASITNDKKSRATQELKRVTEMKNSIQIKLNNLRSTHDQNVKQTEQLEAQVLQVNKENETLAQQLAVSEANYHAAESKLNELTTDLQESQTKNAELKEQITNLNSMTASLQSQLNEKQQQVKQERSMVDVNSKQLELNQVTVANLQKEIDGLGEKISVYLTKQKELNDYQKTVEEQHAQLQAKYQDLSNKDTDLTDREKQLEERNRQIEEQENLYHQHVSKLQEMFDDLSQRKASFEKADQELKERNIEYANNVRELSERQMNLAMGQLPEDAKDIIAKSAS
Consider B1, for which the binding entry in test [1] was “binds”.

Consider B2, for which the binding entry was “binds” in the test with Bbc1 and “no binding” in the test with Sla1.
